Data on one substance can be found in article doi:10.1101/2022.10.22.513345 (bioRxiv, 2022).

By UniProt entry, the sequences of proteins in these tests, tags left out. Residues count along the entry.
UniProt O95858, whole entry: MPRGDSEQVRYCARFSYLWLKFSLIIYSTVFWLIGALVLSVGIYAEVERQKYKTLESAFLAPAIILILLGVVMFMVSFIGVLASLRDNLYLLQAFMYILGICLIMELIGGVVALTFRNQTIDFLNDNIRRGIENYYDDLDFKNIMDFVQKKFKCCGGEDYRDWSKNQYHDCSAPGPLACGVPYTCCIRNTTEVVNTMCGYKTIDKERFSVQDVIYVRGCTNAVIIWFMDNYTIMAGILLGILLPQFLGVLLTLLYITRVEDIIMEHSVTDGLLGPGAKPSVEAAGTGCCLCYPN
UniProt O14672, 214-748: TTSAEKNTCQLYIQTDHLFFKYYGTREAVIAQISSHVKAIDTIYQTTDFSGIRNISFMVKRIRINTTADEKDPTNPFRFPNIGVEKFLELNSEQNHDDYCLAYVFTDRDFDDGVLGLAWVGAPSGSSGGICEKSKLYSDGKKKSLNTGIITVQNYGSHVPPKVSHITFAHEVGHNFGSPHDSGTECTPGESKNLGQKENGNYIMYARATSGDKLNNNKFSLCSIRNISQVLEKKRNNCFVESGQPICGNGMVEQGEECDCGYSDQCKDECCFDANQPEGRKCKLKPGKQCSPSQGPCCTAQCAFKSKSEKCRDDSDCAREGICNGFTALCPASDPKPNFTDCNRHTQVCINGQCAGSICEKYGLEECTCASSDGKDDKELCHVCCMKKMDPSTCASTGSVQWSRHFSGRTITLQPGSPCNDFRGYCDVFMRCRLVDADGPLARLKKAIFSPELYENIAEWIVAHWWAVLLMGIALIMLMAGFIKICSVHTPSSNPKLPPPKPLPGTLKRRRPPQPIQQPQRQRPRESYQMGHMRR

Results are given in words; binding and its absence hold for the method and conditions named. Some results given as binding are weak or reduced against the parent protein; the word gives no strength.

The target in the test is His-EK-Tspan15 (UniProt O95858). Put plainly: cryo-EM structure.

As to “FLAG-ADAM10 (A Disintegrin and Metalloproteinase 10), mature species used for structure determination (from UniProt O14672 214-748) (enzyme)”, the binding result is given as “binds”.
